US5821331A, “Anti-picornaviral agents” (Eli Lilly and Company, priority 1996, dated 1998)
At least one structure is not confirmed: it was looked up by name or label, or the drawing left a doubt. Where a SMILES comes first, the peptide text is derived from it. The star is where a group is joined. Boc = CC(C)(C)OC(=O)*

Experiments:
[1] = test system: 2C'3ABCD portion of the HRV polyprotein precursor; test: In Vitro Translation of HRV RNA (rabbit reticulocyte lysate, autoradiography); assay type: biochemical, human rhinovirus; parameters: key to the marks not given beside the values; details: 5-10 μg/mL tested
Text: In a cell-free translation system, when no inhibitor was present, RNA corresponding to the 2C'3ABCD portion of the HRV polypeptide precursor was translated into the various individual proteins of the virus. […]
Complementary DNA derived from the HRV genone and representing the 2C'3ABCD portion of the HRV polyprotein precursor (Lee W, Monroe S S, Reuckert R R (1993) J. Virol 67:211-2122) was inserted into the commercially available pCITE vector (Novagen, 565 Science Dr., Madison, Wis.). The vector is supplied with the Novagen Red Nova® Lysate translation assay kit, which provides a lysate of New Zealand White rabbit reticulocytes along with other reagents, that allows for efficient cell-free synthesis of proteins from exogenous RNA templates.
The pCITE 2C'3ABCD-containing plasmid was used to transform the JM101 cell line (Stratagene, La Jolla, Calif.) which was then grown under standardard conditions ([…], 37° C.) in 2× YT broth with ampicillin. The plasmid was then isolated by standard CsCl banding procedures. […]
The compounds of Formula I were assayed according to the Red Nova protocol for their ability to inhibit translation of the rhinoviral RNA by the reticulocyte lysate. ^3 H-Leucine (5 mCi/mL) was included in the assay mixture so that translation products could be identified by autoradiography when the samples were analyzed by SDS polyacrylamide gel electrophoresis. […]

HRV = test: Whole Cell Culture Assay of Anti-HRV Activity (Hela cells, XTT); assay type: cell-based, human rhinovirus; parameters: key to the marks not given beside the values; details: Hela cells infected with HRV; 500 μg/mL tested
Method: A third measure of antiviral activity was performed by determining the effects of selected 3C protease inhibitors of Formula I on HRV infection in cultures of Hela cells.
Commercially available Hela cells are susceptible to HRV infection. The virus enters the cells where it readily replicates and when infection levels become high enough, the Hela cells die. The effect of HRV inhibitors can be measured in Hela cultures by first exposing the cells to HRV and shortly thereafter (before viral infection becomes critical) adding potential inhibitors. Compounds which inhibit 3C protease activity serve to protect the cells from the cytopathic effect of the virus. Comparison of viability in cultures receiving serial dilutions of inhibitor to cultures not receiving any inhibitor allows quantitation of the antiviral effect. Any toxic effect of the inhibitor can also be measured by comparing viability of treated cultures with those cultures which are not infected with the virus.
Viability determinations can be readily made by direct counts of viable cells or by assays representative of viability such as measurement of mitochondrial enzyme activity.
Hela cells were dispersed in a 96-well tissue culture plate at 20,000 cells per well with minimum essential medium containing Earl's balanced salt solution, 1% fetal bovine serum, penicillin (150 units/mL) and streptomycin (150 μg/mL). […]

In the case of `CC(C)C[C@H](NC(=O)[C@@H](NC(=O)OC(C)(C)C)C(C)C)C(=O)N[C@@H](Cc1ccccc1)C(=O)N[C@H](C=O)CCC(N)=O` [Example 5, N-(t-butoxycarbonyl-L-valinyl-L-leucinyl-L-phenylalanyl)-L-gluatamine aldehyde] (Boc-VLFQ-aldehyde), the “Translation Assay” value [1] is reported as “++++” and the “Whole Cell Antiviral Testing” value (HRV) is reported as “++”.
